Laboratory results: PubChem BioAssay AID504784 (Drosophila RNAi Screening Center, 2011)
Purpose: 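Genome-wide knock-down for genes giving too much or too little stored lipid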 (primary screen). System: Drosophila Kc167 embryonic cells. Reagents: long dsRNA against Drosophila genes, about 250 ng dsRNA per well. Timing: 4 days. Treatment: cells fed 400 µM oleic acid bound to BSA. Read-out: 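Microscope images give a droplet-to-nucleus area ratio, taken as log and converted to a screen-wide B-score; higher values mean greater lipid storage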. Direction: droplet/nuclear area B-score: higher = more stored lipid (overstorage).
The deposit covers about 17,000 reagents; below is an unselected part of those that have a named target and a result. 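Each column is one replicate's B-score; the combined score over replicates was not deposited, so single values may mislead.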 The numbers tell different reagents against one gene apart. A plus sign joins genes that one reagent is predicted to hit. Not all columns of the deposit are shown.

target gene	dsRNA no.	droplet/nuclear area B-score, replicate 1	droplet/nuclear area B-score, replicate 2
CG33341 (GeneID 2768683)	1	-0.282	-1.07
CG14495 (GeneID 37056)	1	-0.512	0.0687
CG31643 (GeneID 318867)	1	-0.243	-1.33
CG10710 (GeneID 39525)	1	-0.129	0.851
CG4069 (GeneID 39437)	1	-0.393	0.0527
CG12644 (retired record) (GeneID 50414)	1	1.63	-0.816
CG13364 (GeneID 50364)	1	1.12	0.927
CG13364 (GeneID 50364)	2	1.1	1.75
CG43736 + CG33692 (retired record)	1	-0.785	-0.654
CG43736 + CG33692 (retired record)	2	0.36	1.5
CG31467 (GeneID 318751)	1	0.118	-1.29
CG3355 (GeneID 33667)	1	-1.44	-0.571
Amy-d (GeneID 36932)	1	0.268	0.486
Su(Tpl) (GeneID 40171)	1	-1.16	2.64
CG9067 (GeneID 36197)	1	-0.912	-0.754
Or85c (GeneID 41008)	1	0.106	0.0369
CG8788 (GeneID 35932)	1	0.653	-0.099
CG15254 (GeneID 34915)	1	1.22	1.41
CG15254 (GeneID 34915)	2	2.17	-0.00581
Or45b (GeneID 35980)	1	1.06	-0.701
CG42709 (GeneID 39453)	1	-1.22	-0.482

The list goes on, starting with the last 8 of the part before.
target gene	dsRNA no.	droplet/nuclear area B-score, replicate 1	droplet/nuclear area B-score, replicate 2
Su(Tpl) (GeneID 40171)	1	-1.16	2.64
CG9067 (GeneID 36197)	1	-0.912	-0.754
Or85c (GeneID 41008)	1	0.106	0.0369
CG8788 (GeneID 35932)	1	0.653	-0.099
CG15254 (GeneID 34915)	1	1.22	1.41
CG15254 (GeneID 34915)	2	2.17	-0.00581
Or45b (GeneID 35980)	1	1.06	-0.701
CG42709 (GeneID 39453)	1	-1.22	-0.482
Alp12 (GeneID 35218)	1	-0.305	-0.224
Nsun5 (GeneID 7354421)	1	1.32	0.024
CG15403 (GeneID 33527)	1	1.2	0.289
Sf3b1 (GeneID 33235)	1	0.0195	-2.69
Pldn (GeneID 39315)	1	-1.39	-2.48
BBS1 (GeneID 38780)	1	0.459	-0.198
CG15635 (GeneID 33665)	1	0.439	-1.1
CG15635 (GeneID 33665)	2	-2.26	-0.944
HDAC11 (GeneID 326120)	1	0.0474	-0.254
CG11694 (GeneID 40985)	1	0.949	-0.618
Nepl13 (GeneID 42699)	1	0.483	-1.22
LeuRS (GeneID 326262)	1	0.686	0.0288
nkt (GeneID 39264)	1	-0.437	0.785
Rbcn-3A (GeneID 31557)	1	-1.08	-0.0387
Ntmt (GeneID 36022)	1	1.56	-0.16
Cpr49Ac (GeneID 36348)	1	-1.02	1.07
CG10029 (GeneID 40883)	1	0.692	0.366
CG33098 (GeneID 326253)	1	-0.0567	-0.144
CG15882 (GeneID 32895)	1	-0.11	-0.984
CG44001 + CG33995	1	0.256	0.384
CG44001 + CG33995	2	-2.42	-0.651
ND-B8 (GeneID 50178)	1	-0.47	0.859
RnpS1 (GeneID 41147)	1	-0.0949	-0.621
Or19a (GeneID 59214)	1	-1.8	-1.19
vis + achi	1	0.586	-0.21
CG17075 (GeneID 33191)	1	-0.722	-0.962
Klp64D (GeneID 38611)	1	-1.23	-1.53
nonC (GeneID 31625)	1	2.71	0.0963
nonC (GeneID 31625)	2	-0.899	-1.38
CG7271 (GeneID 40021)	1	-1.11	0.236
RNaseZ (GeneID 36086)	1	0.253	1.85
CG31784 (GeneID 318939)	1	0.25	3.34
Rab3 (GeneID 36127)	1	-0.0703	-0.729
CG17493 (GeneID 3355126)	1	3.92	5.11
CG31441 (GeneID 326139)	1	1.01	-0.387
